Source: PMC2894052
No constants are given. Whether binding was seen depends on the method and setting. Binding seen in cells or lysates may run through a third protein. Some binding calls cover weakened binding; strength is not graded here. One block for each molecule: values may come before it.

By UniProt entry, the sequences of proteins in these tests, tags left out.
UniProt P13864: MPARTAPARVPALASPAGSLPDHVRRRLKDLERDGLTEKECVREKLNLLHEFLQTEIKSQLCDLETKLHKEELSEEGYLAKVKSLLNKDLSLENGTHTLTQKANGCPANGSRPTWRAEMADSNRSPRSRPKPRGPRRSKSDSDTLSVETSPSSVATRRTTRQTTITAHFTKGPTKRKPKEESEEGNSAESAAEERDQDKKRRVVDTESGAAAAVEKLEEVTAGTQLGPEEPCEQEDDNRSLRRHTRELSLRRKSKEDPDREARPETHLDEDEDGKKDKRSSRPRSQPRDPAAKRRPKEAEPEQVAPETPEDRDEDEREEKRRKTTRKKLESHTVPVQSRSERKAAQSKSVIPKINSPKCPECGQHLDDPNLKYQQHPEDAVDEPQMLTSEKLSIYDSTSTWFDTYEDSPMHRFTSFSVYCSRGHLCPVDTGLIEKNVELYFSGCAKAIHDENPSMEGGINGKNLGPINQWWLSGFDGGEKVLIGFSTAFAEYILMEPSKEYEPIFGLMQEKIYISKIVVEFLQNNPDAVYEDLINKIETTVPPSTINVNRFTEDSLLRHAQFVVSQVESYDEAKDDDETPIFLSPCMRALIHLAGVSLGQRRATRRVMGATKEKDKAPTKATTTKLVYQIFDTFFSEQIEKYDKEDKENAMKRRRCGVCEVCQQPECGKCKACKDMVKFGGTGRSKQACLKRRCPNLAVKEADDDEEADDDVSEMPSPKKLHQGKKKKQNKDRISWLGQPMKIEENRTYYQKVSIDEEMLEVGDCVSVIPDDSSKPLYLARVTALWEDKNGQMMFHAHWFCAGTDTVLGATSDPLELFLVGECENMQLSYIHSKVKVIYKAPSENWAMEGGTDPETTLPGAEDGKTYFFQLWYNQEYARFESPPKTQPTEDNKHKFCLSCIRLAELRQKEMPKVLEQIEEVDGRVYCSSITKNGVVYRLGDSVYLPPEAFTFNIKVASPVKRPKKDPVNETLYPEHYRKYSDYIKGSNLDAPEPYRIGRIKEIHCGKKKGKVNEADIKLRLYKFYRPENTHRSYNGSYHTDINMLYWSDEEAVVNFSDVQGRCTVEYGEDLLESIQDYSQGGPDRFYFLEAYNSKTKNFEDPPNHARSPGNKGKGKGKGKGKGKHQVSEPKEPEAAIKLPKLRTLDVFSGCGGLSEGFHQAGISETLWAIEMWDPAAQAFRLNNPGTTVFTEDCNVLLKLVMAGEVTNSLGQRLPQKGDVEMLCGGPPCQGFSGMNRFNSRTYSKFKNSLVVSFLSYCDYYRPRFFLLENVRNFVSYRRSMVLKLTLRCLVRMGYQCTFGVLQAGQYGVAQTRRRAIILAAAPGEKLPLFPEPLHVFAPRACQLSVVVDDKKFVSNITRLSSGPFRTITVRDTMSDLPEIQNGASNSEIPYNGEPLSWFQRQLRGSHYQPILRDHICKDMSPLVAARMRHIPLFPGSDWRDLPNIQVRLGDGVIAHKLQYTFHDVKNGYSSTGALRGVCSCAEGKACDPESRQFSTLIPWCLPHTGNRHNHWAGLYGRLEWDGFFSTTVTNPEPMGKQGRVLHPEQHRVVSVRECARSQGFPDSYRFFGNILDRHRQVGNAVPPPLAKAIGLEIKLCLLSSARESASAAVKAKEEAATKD
UniProt P17918: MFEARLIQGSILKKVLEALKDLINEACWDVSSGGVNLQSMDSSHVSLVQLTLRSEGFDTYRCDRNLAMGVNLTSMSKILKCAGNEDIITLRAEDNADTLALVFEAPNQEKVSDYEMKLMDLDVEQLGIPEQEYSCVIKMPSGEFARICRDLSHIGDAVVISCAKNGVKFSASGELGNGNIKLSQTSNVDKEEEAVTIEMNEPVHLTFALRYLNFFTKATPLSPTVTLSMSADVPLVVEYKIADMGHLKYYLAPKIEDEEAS

How the values were obtained:
[1] = target: Dnmt1, endogenous in Ntv-a glial precursor cells (mouse (endogenous in Ntv-a)) (UniProt P13864); assay: co-IP; Dnmt1-immunoprecipitation from Astro#40 and Ntv-a cells nucleofected with pCt or with pUP (expression of the UP chimera as competitor)
[2] = target: Dnmt1, endogenous in Ntv-a glial precursor cells (mouse (endogenous in Ntv-a)) (UniProt P13864); assay: co-IP; Dnmt1-PCNA-UHRF1 interactions in Ntv-a and Ntv-a/PDGF cells, without or with Akt and PKC inhibitors; the method is not named for this panel
[3] = target: Dnmt1, endogenous in Ntv-a glial precursor cells (mouse (endogenous in Ntv-a)) (UniProt P13864); assay: proximity ligation; P-LISA of Dnmt1 and PCNA in cells nucleofected with pCt or with pUP (expression of the UP chimera as competitor); 100 cells of three independent experiments

binding [1]: binds
binding [2]: binds
binding [3]: binds
Molecule: PCNA, endogenous in Ntv-a glial precursor cells (from UniProt P17918 1-261)

binding [1]: binds
binding [2]: binds
B1: UHRF1, endogenous in Ntv-a glial precursor cells (protein, UniProt Q8VDF2 1-782)
chain: MWIQVRTMDGKETHTVNSLSRLTKVQELRKKIEEVFHVEPQLQRLFYRGKQMEDGHTLFDYDVRLNDTIQLLVRQSLALPLSTKERDSELSDSDSGYGVGHSESDKSSTHGEGAAEADDKTVWEDTDLGLYKVNEYVDVRDNIFGAWFEAQVVQVQKRALSEDEPCSSSAVKTSEDDIMYHVKYDDYPEHGVDIVKAKNVRARARTVIPWENLEVGQVVMANYNVDYPRKRGFWYDVEICRKRQTRTARELYGNIRLLNDSQLNNCRIMFVDEVLMIELPKERRPLIASPSQPPPALRNTGKSGPSCRFCKDDENKPCRKCACHVCGGREAPEKQLLCDECDMAFHLYCLKPPLTSVPPEPEWYCPSCRTDSSEVVQAGEKLKESKKKAKMASATSSSRRDWGKGMACVGRTTECTIVPANHFGPIPGVPVGTMWRFRVQVSESGVHRPHVAGIHGRSNDGAYSLVLAGGYEDDVDNGNYFTYTGSGGRDLSGNKRTAGQSSDQKLTNNNRALALNCHSPINEKGAEAEDWRQGKPVRVVRNMKGGKHSKYAPAEGNRYDGIYKVVKYWPERGKSGFLVWRYLLRRDDTEPEPWTREGKDRTRQLGLTMQYPEGYLEALANKEKSRKRPAKALEQGPSSSKTGKSKQKSTGPTLSSPRASKKSKLEPYTLSEQQANLIKEDKGNAKLWDDVLTSLQDGPYQIFLSKVKEAFQCICCQELVFRPVTTVCQHNVCKDCLDRSFRAQVFSCPACRFELDHSSPTRVNQPLQTILNQLFPGYGSGR
